Some of these results come from one statement about several compounds together. For at least one compound, name, drawing or mass did not settle the structure.
System: panelists
Assay: Test Example 1: sensory evaluation of theanine solutions containing one organic nitrogen compound
Assay type: in vivo
Conditions: added to 2 mg/mL theanine solution; ppm relative to theanine; vs theanine control; six panelists; Student's paired t-test

Compound | concentration with significant effect (p<0.10) on umami flavor [ppm] | concentration with significant effect (p<0.10) on bitterness [ppm]
CC(N)=O [organic nitrogen compound C, acetamide] | ≥ 5 | –
CCNC=O [organic nitrogen compound B, ethylformamide] | – | ≥ 5

— patent US20250359576A1, “THEANINE-CONTAINING COMPOSITION” (TAIYO KAGAKU Co., Ltd., priority 2024, published 2025)
